Measured values as given in the supplement of paper PMC10032668.
The list shows a part of the results. Only hits are listed; about a third recur on repeated control peptides.

Protein sequences, listed by entry. Tags and fused reporters are not part of them.
CD3EAP, O15446, UniProt O15446, whole entry: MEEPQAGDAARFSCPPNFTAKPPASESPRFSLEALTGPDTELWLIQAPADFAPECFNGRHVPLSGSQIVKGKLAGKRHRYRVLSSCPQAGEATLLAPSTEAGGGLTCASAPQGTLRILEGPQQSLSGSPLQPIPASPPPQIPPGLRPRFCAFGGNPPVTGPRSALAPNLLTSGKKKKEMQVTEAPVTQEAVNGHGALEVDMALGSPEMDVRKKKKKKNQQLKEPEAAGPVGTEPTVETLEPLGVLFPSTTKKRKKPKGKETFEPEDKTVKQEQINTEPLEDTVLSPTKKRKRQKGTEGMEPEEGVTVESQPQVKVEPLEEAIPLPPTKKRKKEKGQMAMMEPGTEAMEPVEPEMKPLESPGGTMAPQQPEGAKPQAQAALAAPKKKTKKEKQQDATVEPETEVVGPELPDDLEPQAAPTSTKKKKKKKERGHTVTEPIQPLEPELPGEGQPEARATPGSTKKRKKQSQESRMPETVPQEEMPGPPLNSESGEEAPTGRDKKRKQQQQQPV
H2AFY, O75367, UniProt O75367, whole entry: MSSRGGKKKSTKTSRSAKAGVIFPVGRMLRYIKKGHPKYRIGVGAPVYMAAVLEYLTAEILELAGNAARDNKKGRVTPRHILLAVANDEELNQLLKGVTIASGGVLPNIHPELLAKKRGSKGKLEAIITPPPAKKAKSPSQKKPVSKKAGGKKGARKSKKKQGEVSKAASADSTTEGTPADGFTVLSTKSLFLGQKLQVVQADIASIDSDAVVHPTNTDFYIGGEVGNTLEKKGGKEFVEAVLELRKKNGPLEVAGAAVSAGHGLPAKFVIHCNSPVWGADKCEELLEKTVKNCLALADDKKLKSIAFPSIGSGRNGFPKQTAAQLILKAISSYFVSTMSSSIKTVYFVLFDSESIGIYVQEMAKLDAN
COA4, Q9NYJ1, UniProt Q9NYJ1, whole entry: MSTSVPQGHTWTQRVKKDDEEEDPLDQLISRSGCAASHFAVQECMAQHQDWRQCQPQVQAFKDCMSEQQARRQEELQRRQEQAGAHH
SRPK1, Q96SB4, UniProt Q96SB4, whole entry: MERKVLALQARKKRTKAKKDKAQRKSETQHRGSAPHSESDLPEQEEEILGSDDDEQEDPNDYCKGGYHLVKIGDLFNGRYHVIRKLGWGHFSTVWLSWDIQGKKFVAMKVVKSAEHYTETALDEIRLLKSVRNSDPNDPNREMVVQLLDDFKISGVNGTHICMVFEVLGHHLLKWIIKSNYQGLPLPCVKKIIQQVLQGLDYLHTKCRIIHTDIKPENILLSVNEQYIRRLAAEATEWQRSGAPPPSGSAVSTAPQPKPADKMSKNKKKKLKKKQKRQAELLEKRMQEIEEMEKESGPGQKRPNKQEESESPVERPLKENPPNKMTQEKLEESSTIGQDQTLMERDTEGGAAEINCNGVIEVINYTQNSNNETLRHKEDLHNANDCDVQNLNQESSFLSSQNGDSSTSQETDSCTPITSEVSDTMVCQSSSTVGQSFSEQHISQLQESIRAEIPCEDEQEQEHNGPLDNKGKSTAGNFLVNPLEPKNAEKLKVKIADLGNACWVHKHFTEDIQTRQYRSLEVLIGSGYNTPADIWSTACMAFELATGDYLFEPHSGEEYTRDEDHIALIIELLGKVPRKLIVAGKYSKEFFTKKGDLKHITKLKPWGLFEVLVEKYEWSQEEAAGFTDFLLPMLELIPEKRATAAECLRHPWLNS
SRSF1, Q07955, UniProt Q07955, whole entry: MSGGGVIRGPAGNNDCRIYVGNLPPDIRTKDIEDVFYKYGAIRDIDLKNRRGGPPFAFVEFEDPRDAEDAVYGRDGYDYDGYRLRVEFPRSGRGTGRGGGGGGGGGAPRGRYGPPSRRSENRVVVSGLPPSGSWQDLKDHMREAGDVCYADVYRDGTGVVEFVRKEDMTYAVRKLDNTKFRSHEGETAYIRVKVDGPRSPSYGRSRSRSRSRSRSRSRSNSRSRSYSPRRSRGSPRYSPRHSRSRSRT
SRSF9, Q13242, UniProt Q13242, whole entry: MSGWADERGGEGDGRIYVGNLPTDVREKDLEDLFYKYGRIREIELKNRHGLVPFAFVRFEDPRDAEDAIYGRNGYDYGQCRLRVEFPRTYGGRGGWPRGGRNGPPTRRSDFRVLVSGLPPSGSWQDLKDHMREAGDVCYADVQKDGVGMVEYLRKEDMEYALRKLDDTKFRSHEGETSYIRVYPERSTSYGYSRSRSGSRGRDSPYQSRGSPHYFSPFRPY

Experiments:
Assay in all cases: PRISMA enrichment of interactor (LFQ) in peptide spot vs all other peptide spots (log2 fold change); higher = stronger / more specific binding of the interactor to the peptide
ANKRD17, O75179 = target: ANKRD17, O75179
Description: (§1)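 PRISMA: 221 full-length sORF-encoded peptides (3-15 aa), plus SOS1/GLUT1 control peptides, were spot-synthesized on cellulose membranes in triplicate. Membranes were incubated with HEK293T lysate, and bound proteins were identified by LC-MS/MS with LFQ. Enrichment is the log2 fold change versus all other peptide spots; only significant interactors are listed (cutoff c=6, x0=2.8).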

AZU1, P20160 = target: AZU1, P20160
Description: as §1

CALU, O43852 = target: CALU, O43852
Description: as §1

CD3EAP, O15446 = target: CD3EAP, O15446
Description: as §1

ELL, P55199 = target: ELL, P55199
Description: as §1

EXO1, Q9UQ84 = target: EXO1, Q9UQ84
Description: as §1

H2AFY, O75367 = target: H2AFY, O75367
Description: as §1

MCRIP2, Q9BUT9 = target: MCRIP2, Q9BUT9
Description: as §1

RNF5, Q99942 = target: RNF5, Q99942
Description: as §1

SCO1, O75880 = target: SCO1, O75880
Description: as §1

ANP32A, P39687 = target: ANP32A, P39687
Description: as §1

ANP32B, Q92688 = target: ANP32B, Q92688
Description: as §1

ANP32E, Q9BTT0 = target: ANP32E, Q9BTT0
Description: as §1

ASCC2, Q9H1I8 = target: ASCC2, Q9H1I8
Description: as §1

CDK11B, P21127 = target: CDK11B, P21127
Description: as §1

CNPY2, Q9Y2B0 = target: CNPY2, Q9Y2B0
Description: as §1

COA4, Q9NYJ1 = target: COA4, Q9NYJ1
Description: as §1

DAP3, P51398 = target: DAP3, P51398
Description: as §1

EIF6, P56537 = target: EIF6, P56537
Description: as §1

FLII, Q13045 = target: FLII, Q13045
Description: as §1

GRB2, P62993 = target: GRB2, P62993
Description: as §1

HLA-C = target: HLA-C
Description: as §1

HTATSF1, O43719 = target: HTATSF1, O43719
Description: as §1

MRPS31, Q92665 = target: MRPS31, Q92665
Description: as §1

PAF1, Q8N7H5 = target: PAF1, Q8N7H5
Description: as §1

PRPF38B, Q5VTL8 = target: PRPF38B, Q5VTL8
Description: as §1

PTCD3, Q96EY7 = target: PTCD3, Q96EY7
Description: as §1

RNH1, P13489 = target: RNH1, P13489
Description: as §1

SMAP, O00193 = target: SMAP, O00193
Description: as §1

SNX9, Q9Y5X1 = target: SNX9, Q9Y5X1
Description: as §1

SRPK1, Q96SB4 = target: SRPK1, Q96SB4
Description: as §1

SRSF1, Q07955 = target: SRSF1, Q07955
Description: as §1

SRSF10, O75494 = target: SRSF10, O75494
Description: as §1

SRSF2, Q01130 = target: SRSF2, Q01130
Description: as §1

SRSF5, Q13243 = target: SRSF5, Q13243
Description: as §1

SRSF6, Q13247 = target: SRSF6, Q13247
Description: as §1

SRSF7, Q16629 = target: SRSF7, Q16629
Description: as §1

SRSF9, Q13242 = target: SRSF9, Q13242
Description: as §1

SUPT5H, O00267 = target: SUPT5H, O00267
Description: as §1

Binder	PRISMA enrichment of interactor (log2) (ANKRD17, O75179)	PRISMA enrichment of interactor (log2) (AZU1, P20160)	PRISMA enrichment of interactor (log2) (CALU, O43852)	PRISMA enrichment of interactor (log2) (CD3EAP, O15446)	PRISMA enrichment of interactor (log2) (ELL, P55199)	PRISMA enrichment of interactor (log2) (EXO1, Q9UQ84)	PRISMA enrichment of interactor (log2) (H2AFY, O75367)	PRISMA enrichment of interactor (log2) (MCRIP2, Q9BUT9)	PRISMA enrichment of interactor (log2) (RNF5, Q99942)	PRISMA enrichment of interactor (log2) (SCO1, O75880)	PRISMA enrichment of interactor (log2) (ANP32A, P39687)	PRISMA enrichment of interactor (log2) (ANP32B, Q92688)	PRISMA enrichment of interactor (log2) (ANP32E, Q9BTT0)	PRISMA enrichment of interactor (log2) (ASCC2, Q9H1I8)	PRISMA enrichment of interactor (log2) (CDK11B, P21127)	PRISMA enrichment of interactor (log2) (CNPY2, Q9Y2B0)	PRISMA enrichment of interactor (log2) (COA4, Q9NYJ1)	PRISMA enrichment of interactor (log2) (DAP3, P51398)	PRISMA enrichment of interactor (log2) (EIF6, P56537)	PRISMA enrichment of interactor (log2) (FLII, Q13045)	PRISMA enrichment of interactor (log2) (GRB2, P62993)	PRISMA enrichment of interactor (log2) (HLA-C)	PRISMA enrichment of interactor (log2) (HTATSF1, O43719)	PRISMA enrichment of interactor (log2) (MRPS31, Q92665)	PRISMA enrichment of interactor (log2) (PAF1, Q8N7H5)	PRISMA enrichment of interactor (log2) (PRPF38B, Q5VTL8)	PRISMA enrichment of interactor (log2) (PTCD3, Q96EY7)	PRISMA enrichment of interactor (log2) (RNH1, P13489)	PRISMA enrichment of interactor (log2) (SMAP, O00193)	PRISMA enrichment of interactor (log2) (SNX9, Q9Y5X1)	PRISMA enrichment of interactor (log2) (SRPK1, Q96SB4)	PRISMA enrichment of interactor (log2) (SRSF1, Q07955)	PRISMA enrichment of interactor (log2) (SRSF10, O75494)	PRISMA enrichment of interactor (log2) (SRSF2, Q01130)	PRISMA enrichment of interactor (log2) (SRSF5, Q13243)	PRISMA enrichment of interactor (log2) (SRSF6, Q13247)	PRISMA enrichment of interactor (log2) (SRSF7, Q16629)	PRISMA enrichment of interactor (log2) (SRSF9, Q13242)	PRISMA enrichment of interactor (log2) (SUPT5H, O00267)
MYRGSPTACETQAAA [COA4]	12.2	4.5	7.28	5.08	6	6.6	5.06	4	5.32	5.23	–	–	–	–	–	–	–	–	–	–	–	–	–	–	–	–	–	–	–	–	–	–	–	–	–	–	–	–	–
MCEGRERERRAPQR [UGP2]	–	–	–	4.56	–	–	–	–	–	–	5.77	6.48	6.27	5.14	5.51	4.08	5.86	5.17	5.47	4.73	4.8	5.23	6.51	5.45	5.68	5.21	5.33	4.14	4.5	4.93	5.44	7.33	5.14	5.78	5.63	6.22	6.28	7.19	5.85
